According to US20110136727A1, “Compositions and methods for rapid selection of pathogen binding agents” (priority 2009, published 2011):
At least one peptide structure holds a part that was inferred or is arguable (an end, a ring closure or a residue). Where a SMILES comes first, the peptide text is derived from it.

System: E. coli O111:B4
Assay: In vitro growth inhibition assay (turbidity at 600 nm)
Assay type: cell-based
Details: added at mid-logarithmic phase, QF8 at 25 micrometers, NEG-1 at 100 micrometers, Construct 1 at 7, 10, and 25 micrometers, vs untreated bacteria
Description: FIG. 6. Bacterial growth inhibition assays in presence of (a) growth media; (b) negative control peptide NEG1 at 100 micromolar; (c) 25 micromolar peptide QF8 (SEQ ID NO: 33 Table 2); (d) 7 micrommolar QF8-PEG Construct 1; (e) 10 micromolar QF8-PEG Construct 1; (f) 17.5 micromolar QF8-PEG construct 1; (g) 25 micromolar QF8-PEG Construct 1; (h) 100 IU penicillin/streptomycin as a positive control.
In vitro growth inhibition assays. Growth of E. coli O111:B4 was assessed in the presence of different concentrations of NEG-1, QF8, and Construct 1 using turbidity at 600 nm. […]
In vitro inhibition assays. […] Growth was monitored as turbidity at 600 nm. Experiments were performed at 30 degrees Centigrade in microtiter plates with 100 microliters of culture using a Spectra Max Plus microtiter plate reader with Soft Max Pro Software (Molecular devices). The turbidity was measured every 5 minutes and the plate was shaken for 30 seconds before each measurement. Bacteria concentration was calculated according to the McFarland general method using the absorbance at 600 nm of a series of mixtures of 1% barium chloride and 1% sulfuric acid.

## N=C(N)NCCC[C@H](NC(=O)[C@H](Cc1ccccc1)NC(=O)[C@H](CCCCN)NC(=O)[C@@H]1CCCN1C(=O)[C@H](CCCCN)NC(=O)[C@H](CCCNC(=N)N)NC(=O)[C@@H](N)Cc1c[nH]cn1)C(=O)N[C@@H](Cc1c[nH]cn1)C(=O)N[C@@H](Cc1c[nH]cn1)C(=O)N[C@@H](Cc1c[nH]cn1)C(=O)N[C@@H](Cc1ccccc1)C(=O)N[C@@H](CCCCN)C(=O)N[C@@H](Cc1c[nH]c2ccccc12)C(=O)N[C@@H](CCCCN)C(=O)N[C@@H](Cc1c[nH]cn1)C(=O)N[C@@H](Cc1c[nH]c2ccccc12)C(=O)N[C@@H](CCCCN)C(=O)NCC(=O)N[C@@H](CO)C(=O)N[C@@H](CS)C(=O)O [SEQ ID NO: 33] (H-HRKPKFRHHHFKWKHWKGSC-OH; N-terminus and C-terminus assumed)
  Growth of E. coli O111:B4 (growth curves, bacterial count): dramatic decrease in bacterial count
